Results deposited as PubChem BioAssay AID1508597 (Cure First, 2020)
This is a random part of about 2,100 reagents tested. 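Calls flag viability under 80% in either arm, not effects specific to rucaparib; the reference for percent is not stated.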 Entries without a mark were called inactive. The record does not give: the 100% reference.

- Purpose: 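Genes whose silencing sensitises or protects ovarian cancer cells against rucaparib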 (primary screen)
- Cells: human ovarian carcinoma lines grown from tumours: OCI-P5x (papillary serous) and OCI-C5x (clear cell)
- Knock-down reagent: siRNA pool against human genes, 1.25 pmol siRNA per well
- Time to read-out: 72 h or 96 h, depending on the cell culture
- Conditions: rucaparib 20 µM (about IC30) or vehicle, present until read-out
- Read-out: 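ATP luminescence measured at 72 or 96 h according to the culture, then normalised and expressed as percent viability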
- Scale: viability, normalised: higher = more viable cells remaining
- Active means: 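a well counts as a hit if its normalised viability is under 80 percent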
- Calls: active = viability under 80%; inactive = viability 80% or more

gene	rucaparib or vehicle	cell line	technical replicate	viability, normalised (%)
TDG (thymine DNA glycosylase)	Rucaparib	OCI-C5x (clear cell)	1	57.9 (active)
TDG (thymine DNA glycosylase)	Rucaparib	OCI-C5x (clear cell)	2	46.8 (active)
TDG (thymine DNA glycosylase)	Rucaparib	OCI-C5x (clear cell)	3	69.5 (active)
TDG (thymine DNA glycosylase)	Rucaparib	OCI-P5x (serous)	1	89.5
TDG (thymine DNA glycosylase)	Rucaparib	OCI-P5x (serous)	2	98.7
TDG (thymine DNA glycosylase)	Rucaparib	OCI-P5x (serous)	3	81.1
TDG (thymine DNA glycosylase)	Vehicle	OCI-C5x (clear cell)	1	68 (active)
TDG (thymine DNA glycosylase)	Vehicle	OCI-C5x (clear cell)	2	76.9 (active)
TDG (thymine DNA glycosylase)	Vehicle	OCI-C5x (clear cell)	3	59.4 (active)
TDG (thymine DNA glycosylase)	Vehicle	OCI-P5x (serous)	1	98.5
TDG (thymine DNA glycosylase)	Vehicle	OCI-P5x (serous)	2	89.3
TDG (thymine DNA glycosylase)	Vehicle	OCI-P5x (serous)	3	81.1
PDCD2L (programmed cell death 2 like)	Rucaparib	OCI-C5x (clear cell)	1	55.3 (active)
PDCD2L (programmed cell death 2 like)	Rucaparib	OCI-C5x (clear cell)	2	44 (active)
PDCD2L (programmed cell death 2 like)	Rucaparib	OCI-C5x (clear cell)	3	49.4 (active)
PDCD2L (programmed cell death 2 like)	Rucaparib	OCI-P5x (serous)	1	65.3 (active)
PDCD2L (programmed cell death 2 like)	Rucaparib	OCI-P5x (serous)	2	57.7 (active)
PDCD2L (programmed cell death 2 like)	Rucaparib	OCI-P5x (serous)	3	77.9 (active)
PDCD2L (programmed cell death 2 like)	Vehicle	OCI-C5x (clear cell)	1	53.3 (active)
PDCD2L (programmed cell death 2 like)	Vehicle	OCI-C5x (clear cell)	2	54.4 (active)
PDCD2L (programmed cell death 2 like)	Vehicle	OCI-C5x (clear cell)	3	50.2 (active)
PDCD2L (programmed cell death 2 like)	Vehicle	OCI-P5x (serous)	1	71 (active)
PDCD2L (programmed cell death 2 like)	Vehicle	OCI-P5x (serous)	2	69.4 (active)
PDCD2L (programmed cell death 2 like)	Vehicle	OCI-P5x (serous)	3	79.6 (active)
CBX6 (chromobox 6)	Rucaparib	OCI-C5x (clear cell)	1	65.6 (active)
CBX6 (chromobox 6)	Rucaparib	OCI-C5x (clear cell)	2	29.5 (active)
CBX6 (chromobox 6)	Rucaparib	OCI-C5x (clear cell)	3	55.5 (active)
CBX6 (chromobox 6)	Rucaparib	OCI-P5x (serous)	1	53.9 (active)
CBX6 (chromobox 6)	Rucaparib	OCI-P5x (serous)	2	62.7 (active)
CBX6 (chromobox 6)	Rucaparib	OCI-P5x (serous)	3	78.2 (active)
CBX6 (chromobox 6)	Vehicle	OCI-C5x (clear cell)	1	53.7 (active)
CBX6 (chromobox 6)	Vehicle	OCI-C5x (clear cell)	2	41.7 (active)
CBX6 (chromobox 6)	Vehicle	OCI-C5x (clear cell)	3	51.5 (active)
CBX6 (chromobox 6)	Vehicle	OCI-P5x (serous)	1	51.3 (active)
CBX6 (chromobox 6)	Vehicle	OCI-P5x (serous)	2	58.8 (active)
CBX6 (chromobox 6)	Vehicle	OCI-P5x (serous)	3	73.2 (active)
IPO8 (importin 8)	Rucaparib	OCI-C5x (clear cell)	1	65.9 (active)
IPO8 (importin 8)	Rucaparib	OCI-C5x (clear cell)	2	53.5 (active)
IPO8 (importin 8)	Rucaparib	OCI-C5x (clear cell)	3	49.3 (active)
IPO8 (importin 8)	Rucaparib	OCI-P5x (serous)	1	94.1
IPO8 (importin 8)	Rucaparib	OCI-P5x (serous)	2	73.8 (active)
IPO8 (importin 8)	Rucaparib	OCI-P5x (serous)	3	59.3 (active)
IPO8 (importin 8)	Vehicle	OCI-C5x (clear cell)	1	51 (active)
IPO8 (importin 8)	Vehicle	OCI-C5x (clear cell)	2	72.3 (active)
IPO8 (importin 8)	Vehicle	OCI-C5x (clear cell)	3	64 (active)
IPO8 (importin 8)	Vehicle	OCI-P5x (serous)	1	76.7 (active)
IPO8 (importin 8)	Vehicle	OCI-P5x (serous)	2	83.6
IPO8 (importin 8)	Vehicle	OCI-P5x (serous)	3	84.1
CENPE (centromere protein E)	Rucaparib	OCI-C5x (clear cell)	1	29.1 (active)
CENPE (centromere protein E)	Rucaparib	OCI-C5x (clear cell)	2	38.4 (active)
CENPE (centromere protein E)	Rucaparib	OCI-C5x (clear cell)	3	35.7 (active)
CENPE (centromere protein E)	Rucaparib	OCI-P5x (serous)	1	48.9 (active)
CENPE (centromere protein E)	Rucaparib	OCI-P5x (serous)	2	46 (active)
CENPE (centromere protein E)	Rucaparib	OCI-P5x (serous)	3	51.9 (active)
CENPE (centromere protein E)	Vehicle	OCI-C5x (clear cell)	1	37.2 (active)
CENPE (centromere protein E)	Vehicle	OCI-C5x (clear cell)	2	26.7 (active)
CENPE (centromere protein E)	Vehicle	OCI-C5x (clear cell)	3	32.8 (active)
CENPE (centromere protein E)	Vehicle	OCI-P5x (serous)	1	44.8 (active)
CENPE (centromere protein E)	Vehicle	OCI-P5x (serous)	2	35.8 (active)
CENPE (centromere protein E)	Vehicle	OCI-P5x (serous)	3	40.6 (active)
ABL2 (ABL proto-oncogene 2, non-receptor tyrosine kinase)	Rucaparib	OCI-C5x (clear cell)	1	80.1
ABL2 (ABL proto-oncogene 2, non-receptor tyrosine kinase)	Rucaparib	OCI-C5x (clear cell)	2	53.5 (active)
ABL2 (ABL proto-oncogene 2, non-receptor tyrosine kinase)	Rucaparib	OCI-C5x (clear cell)	3	75.2 (active)
ABL2 (ABL proto-oncogene 2, non-receptor tyrosine kinase)	Rucaparib	OCI-P5x (serous)	1	113
ABL2 (ABL proto-oncogene 2, non-receptor tyrosine kinase)	Rucaparib	OCI-P5x (serous)	2	107
ABL2 (ABL proto-oncogene 2, non-receptor tyrosine kinase)	Rucaparib	OCI-P5x (serous)	3	96.1
ABL2 (ABL proto-oncogene 2, non-receptor tyrosine kinase)	Vehicle	OCI-C5x (clear cell)	1	67.5 (active)
ABL2 (ABL proto-oncogene 2, non-receptor tyrosine kinase)	Vehicle	OCI-C5x (clear cell)	2	54.5 (active)
ABL2 (ABL proto-oncogene 2, non-receptor tyrosine kinase)	Vehicle	OCI-C5x (clear cell)	3	63.9 (active)
ABL2 (ABL proto-oncogene 2, non-receptor tyrosine kinase)	Vehicle	OCI-P5x (serous)	1	77.6 (active)
ABL2 (ABL proto-oncogene 2, non-receptor tyrosine kinase)	Vehicle	OCI-P5x (serous)	2	77.7 (active)
ABL2 (ABL proto-oncogene 2, non-receptor tyrosine kinase)	Vehicle	OCI-P5x (serous)	3	72.7 (active)
PIK3C2A	Rucaparib	OCI-C5x (clear cell)	1	63.5 (active)
PIK3C2A	Rucaparib	OCI-C5x (clear cell)	2	70 (active)
PIK3C2A	Rucaparib	OCI-C5x (clear cell)	3	61 (active)
PIK3C2A	Rucaparib	OCI-P5x (serous)	1	117
PIK3C2A	Rucaparib	OCI-P5x (serous)	2	114
PIK3C2A	Rucaparib	OCI-P5x (serous)	3	101
PIK3C2A	Vehicle	OCI-C5x (clear cell)	1	74.4 (active)
PIK3C2A	Vehicle	OCI-C5x (clear cell)	2	59.5 (active)
PIK3C2A	Vehicle	OCI-C5x (clear cell)	3	68.3 (active)
PIK3C2A	Vehicle	OCI-P5x (serous)	1	80.2
PIK3C2A	Vehicle	OCI-P5x (serous)	2	97.3
PIK3C2A	Vehicle	OCI-P5x (serous)	3	105

Looked up above.
PDCD2L (programmed cell death 2 like), rucaparib or vehicle Rucaparib, cell line OCI-P5x (serous), technical replicate 3, viability, normalised (%) → 77.9 (active)
PDCD2L (programmed cell death 2 like), rucaparib or vehicle Vehicle, cell line OCI-P5x (serous), technical replicate 3, viability, normalised (%) = 79.6 (active)
Entry of ABL2 (ABL proto-oncogene 2, non-receptor tyrosine kinase), rucaparib or vehicle Rucaparib, cell line OCI-C5x (clear cell), technical replicate 2 under “viability, normalised (%)”: 53.5 (active)
Entry of CBX6 (chromobox 6), rucaparib or vehicle Vehicle, cell line OCI-P5x (serous), technical replicate 3 under “viability, normalised (%)”: 73.2 (active)
For “viability, normalised (%)”, TDG (thymine DNA glycosylase), rucaparib or vehicle Vehicle, cell line OCI-C5x (clear cell), technical replicate 3 is entered as 59.4 (active)
Result for CENPE (centromere protein E), rucaparib or vehicle Vehicle, cell line OCI-C5x (clear cell), technical replicate 1 under “viability, normalised (%)”: 37.2 (active)
